According to US20260275319A1, “ARCHAEAL PEPTIDE RECOMBINASE – A NOVEL PEPTIDE LIGATING ENZYME” (MAX-PLANCK-GESELLSCHAFT ZUR FÖRDERUNG DER WISSENSCHAFTEN …, priority 2019, published 2026):
These are yes or no findings as the source states them, for the method shown. A result given as binding can be weak or reduced; the word gives no strength. Where a sequence is shown, tags or fusion partners need not be part of it.

Experiments:
[1] = molecular target: M. jannaschii MtrA^Δ174-245 with N-terminal His6-tag (Methanocaldococcus jannaschii); test: SEC-MALS, 1:1 molar mixture
[2] = molecular target: M. jannaschii MtrA^Δ174-245 with N-terminal His6-tag (Methanocaldococcus jannaschii); test: SEC-MALS, 1:1 molar mixture of 200 µM proteins
[3] = molecular target: M. jannaschii MtrA^Δ174-245 with N-terminal His6-tag (Methanocaldococcus jannaschii); test: size-exclusion chromatography with light scattering (SEC-MALS), A280 against volume
[4] = molecular target: M. jannaschii MtrA^Δ174-245 with N-terminal His6-tag (Methanocaldococcus jannaschii); test: microscale thermophoresis (MST), Adriase titrated against labelled MtrA^Δ174-245, three measurements

- binding [1]: binds
- binding [2]: binds
- binding [3]: binds
- binding [4]: binds
B1: M. jannaschii Adriase S1A mutant with C-terminal His-tag (enzyme)
chain: ALIICYYGKNGAVIGGDRRQIFFRGSEENRKILEEKLYSGEIKSEEELYKLAEKLNIKIIIEDDREKVRKISDSVVCGEVRSLGIDAKRRRVYATKGKCAIVDILNDTVTNQTIKEGFGIVVLGNRFLKKKAEEELKRTAKLFPMMPIQQIEDAIKEIFEKLKWHPTVSKEYDIYSVNKYEKNFEEVIKKDIESLFKYREQLRKQLIDFGKVMSIVNKIVKNGEIGVIKDGKLHLYDDYIAIDKIDPNPKVFKVVDVEGNFKDGDIVVIENGDMKIKGTNEKVTTKYIIIHKGSHHHHHH
